This series is described as follows: Formation and stabilization of colloidal copper by cyclodextrin derivatives. The format is physicochemical. The settings on record: cyclodextrin derivative 5%; for Copper in Active Form (%): after exposure to air at room temperature, from absorbance at 570 nm; for Absorbance at 420 nm: colloidal copper after hydrazine hydrate and 25 minutes ultrasound bath.

Structures are written as SMILES. Marks after values point to notes of the source that are not given here.

As to `COC[C@H]1O[C@@H]2O[C@H]3[C@H](O)[C@@H](OC)[C@@H](O[C@H]4[C@H](O)[C@@H](OC)[C@@H](O[C@H]5[C@H](O)[C@@H](OC)[C@@H](O[C@H]6[C@H](O)[C@@H](OC)[C@@H](O[C@H]7[C@H](O)[C@@H](OC)[C@@H](O[C@H]8[C@H](O)[C@@H](OC)[C@@H](O[C@H]1[C@H](O)[C@H]2OC)O[C@@H]8COC)O[C@@H]7COC)O[C@@H]6COC)O[C@@H]5COC)O[C@@H]4COC)O[C@@H]3COC` [DIMEB], the “Copper in Active Form (%)” value is 100% and the “Absorbance at 420 nm” value is reported as “.110”.
The corresponding values for `OCC1OC(OC2C(CO)OC(OCC3OC4OC5C(CO)OC(OC6C(CO)OC(OC7C(CO)OC(OC8C(CO)OC(OC9C(CO)OC(OC%10C(CO)OC(OC3C(O)C4O)C(O)C%10O)C(O)C9O)C(O)C8O)C(O)C7O)C(O)C6O)C(O)C5O)C(O)C2O)C(O)C(O)C1O` (stereo not drawn) [G2] are “less than 100%*” and “.437”.
The corresponding values for `COC[C@H]1O[C@@H]2O[C@@H]3[C@@H](OC)[C@@H](OC)[C@@H](O[C@@H]4[C@@H](OC)[C@@H](OC)[C@@H](O[C@@H]5[C@@H](OC)[C@@H](OC)[C@@H](O[C@@H]6[C@@H](OC)[C@@H](OC)[C@@H](O[C@@H]7[C@@H](OC)[C@@H](OC)[C@@H](O[C@@H]1[C@@H](OC)[C@H]2OC)O[C@@H]7COC)O[C@@H]6COC)O[C@@H]5COC)O[C@@H]4COC)O[C@@H]3COC` [TRIMEA] are 100% and “.520”.

(Values after patent US6576261B1, “Potentiation of inclusion complex formation of cyclodextrin derivatives” (priority 1999, dated 2003).)
